Our source for the binding values is article doi:10.1101/2023.08.11.553045.

The chains behind the UniProt entries cited, without tags or fusion partners. Where a name states a change or a piece, a line headed by the entry shows the natural chain unless it says otherwise.
UniProt Q86WV6, whole entry: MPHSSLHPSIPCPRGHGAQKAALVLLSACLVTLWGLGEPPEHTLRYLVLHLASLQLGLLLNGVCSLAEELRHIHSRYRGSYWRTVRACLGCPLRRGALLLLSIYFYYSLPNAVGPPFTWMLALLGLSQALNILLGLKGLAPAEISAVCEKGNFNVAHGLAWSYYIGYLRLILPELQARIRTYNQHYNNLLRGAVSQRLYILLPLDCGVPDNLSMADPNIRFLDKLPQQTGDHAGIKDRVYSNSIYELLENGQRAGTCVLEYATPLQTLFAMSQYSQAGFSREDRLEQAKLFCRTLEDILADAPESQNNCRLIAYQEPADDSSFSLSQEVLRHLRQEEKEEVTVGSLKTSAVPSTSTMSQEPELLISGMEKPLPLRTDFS

Results are given in words; binding and its absence hold for the method and conditions named. Binding seen in cells or lysates may run through a third protein. Some entries that bind do so weakly or less than the wild type. Tags and fused reporters may be left off the sequences shown.

Assay [1] concerns the target HA-tagged STING-C64S (human) (UniProt Q86WV6). The assay can be described thus: co-IP.
Assay [2] addresses HA-tagged WT-STING (human), Q86WV6. The assay can be described thus: co-IP. Particulars: remark: other sources report otherwise.

B1: TBK1-FLAG (enzyme, UniProt Q9UHD2 1-729)
chain: MQSTSNHLWLLSDILGQGATANVFRGRHKKTGDLFAIKVFNNISFLRPVDVQMREFEVLKKLNHKNIVKLFAIEEETTTRHKVLIMEFCPCGSLYTVLEEPSNAYGLPESEFLIVLRDVVGGMNHLRENGIVHRDIKPGNIMRVIGEDGQSVYKLTDFGAARELEDDEQFVSLYGTEEYLHPDMYERAVLRKDHQKKYGATVDLWSIGVTFYHAATGSLPFRPFEGPRRNKEVMYKIITGKPSGAISGVQKAENGPIDWSGDMPVSCSLSRGLQVLLTPVLANILEADQEKCWGFDQFFAETSDILHRMVIHVFSLQQMTAHKIYIHSYNTATIFHELVYKQTKIISSNQELIYEGRRLVLEPGRLAQHFPKTTEENPIFVVSREPLNTIGLIYEKISLPKVHPRYDLDGDASMAKAITGVVCYACRIASTLLLYQELMRKGIRWLIELIKDDYNETVHKKTEVVITLDFCIRNIEKTVKVYEKLMKINLEAAELGEISDIHTKLLRLSSSQGTIETSLQDIDSRLSPGGSLADAWAHQEGTHPKDRNVEKLQVLLNCMTEIYYQFKKDKAERRLAYNEEQIHKFDKQKLYYHATKAMTHFTDECVKKYEAFLNKSEEWIRKMLHLRKQLLSLTNQCFDIEEEVSKYQEYTNELQETLPQKMFTASSGIKHTMTPIYPSSNTLVEMTLGMKKLKEEMEGVVKELAENNHILERFGSLTMDGGLRNVDCL
Regarding B1, in assay [1], the binding entry is on record as “binds”.

B2: TBK1-FLAG, Q9UHD2 1-729 (enzyme)
chain: B1 chain
In the case of B2, in assay [2], the binding entry is given as “binds”.
